Test results as given in US5500807A, “Selection method for pharmacologically active compounds” (The Regents of the University of California, priority 1992, dated 1996).

Tested on: nuclear thyroid hormone receptors (rat liver)
Details: variety of solubilized receptor preparations (liver, brain, GC cells); single class of sites; FIG. 5

CCCCc1oc2ccccc2c1C(=O)c1cc(I)c(OCCN(CC)CC)c(I)c1 [amiodarone, 2-butyl-3-[3,5-diiodo-4-(β-diethylaminoethoxy)-benzoyl]benzofuran]
concentrations at which competition with T3 for binding was dose-dependent: 10^-7 to 10^-4 M
